Assay results as given in PubChem BioAssay AID485349 (National Center for Advancing Translational Sciences (NCATS), 2010).
The whole screen tested about 320,000 compounds, of which about 620 (0.19%) were called active. The inconclusive results got no clear call from the source; some entries with a clear call stand among them for comparison. Calls come from the whole dose curve; as a rule, active = well fitted activation curve with a large enough effect; inconclusive = small, poorly fitted or top-dose-only effect; inactive = no such curve, though single readings can be large or run the other way. A potency beside an inconclusive call is a rough fit, not a confirmed value.

Assay: qHTS Assay for Identifying a Potential Treatment of Ataxia-Telangiectasia; note: nearly all actives have a fitted effect of over 45% in size
Settings: […] A-T fibroblasts, KAP-1 phosphorylation AlphaLISA, neocarzinostatin DNA damage 30 min before lysis; series mostly up to 57.5 µM
Summary of the method: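 hTERT-immortalized A-T patient fibroblasts ([…]), 500 cells/well in OPTI-MEM, 1% FBS, got compounds for 60 min, then NCS for 30 min at 37C. Lysates were then assayed for phospho-KAP-1 by AlphaLISA (anti-pKAP1 donor, anti-KAP1 acceptor beads), 6 hr at 25C.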
Potency is the fitted concentration of half-maximal effect.

| SMILES | Potency |
| --- | --- |
| c1ccc2c(c1)nc(N1CCCCC1)c1ccccc12 | active: 14.1 µM |
| CCOC(=O)c1cc2ccc3ccccc3c2s1 | inconclusive: 39.8 µM [activator, single point] |
| O=C(CSc1cn(CCNC(=O)c2ccc3ccccc3c2)c2ccccc12)NCc1ccco1 | inactive |
| COc1ccc(C2CC(=O)N(c3ccccc3)C3=C2C(=O)CCC3)cc1 (stereo not given) | inconclusive: 39.8 µM [activator, single point] |
| O=C(c1ccc(F)cc1)N1CCCC(c2nc(-c3cccs3)no2)C1 (stereo not given) | inconclusive: 1.12 µM [activator, full curve] |
| O=C(Nc1cccc2c1N(C(=O)c1ccco1)CCC2)c1ccco1 | active: 35.5 µM |
| Cc1cccc(OCCSc2nc3ccccc3n2CC(=O)O)c1 | inconclusive: 31.6 µM [activator, partial curve] |
| CCCCN(c1nc2ccccc2nc1Cl)S(=O)(=O)c1ccc(C)cc1 | active: 10 µM |
| Cc1ccc(NC(=O)c2sc3ncn(CC(=O)N4CCOCC4)c(=O)c3c2C)c(Br)c1 | inactive |
| CCc1ccc(NC(=O)N2CCc3ccccc3C2)cc1 | inconclusive: 25.1 µM [activator, single point] |
| COc1ccc(S(=O)(=O)Oc2cccc(C(=S)N3CCOCC3)c2)cc1 | inconclusive: 39.8 µM [activator, partial curve] |
| CS(=O)(=O)c1ccc(NS(=O)(=O)c2ccc3ccccc3c2)cc1 | inconclusive: 10 µM [activator, partial curve] |
| Cn1nnnc1Sc1ncnc2scc(-c3cc4ccccc4o3)c12 | inconclusive: 39.8 µM [activator, single point] |
| Cc1ccc(NC2=C/C(=N/S(=O)(=O)c3cccs3)c3ccccc3C2=O)cc1 | inconclusive: 3.98 µM [activator, full curve, poor fit] |
| Cc1cccc(NC(=O)c2onc3c2CCCC3)n1 | inactive |
| COc1ccc2nc(N3CCCCC3)c(C#N)cc2c1 | active: 20 µM |
| O=C(CSCc1ccc(C(=O)O)cc1)Nc1ccc2ccccc2c1 | inconclusive: 5.01 µM [activator, partial curve] |
| CN(C)c1ccc(C2N3CC4(C)CN2CC(C)(C3)C4O)cc1 (stereo not given) | inconclusive: 0.631 µM [activator, full curve, poor fit] |
| CCN(CC)S(=O)(=O)c1cccc(-c2nnc(SCc3nc4ccccc4s3)o2)c1 | inactive |
| CC(Nc1cc(N2CCN(C(=O)C(C)(C)C)CC2)ccc1[N+](=O)[O-])c1ccccc1 (stereo not given) | inactive |
| COc1ccc(/C=C2/C(=O)N(c3c(F)c(F)c(F)c(F)c3F)N=C2C)cc1 | inconclusive: 11.2 µM [activator, partial curve, poor fit] |
| Cc1ccccc1OCCCn1c(=O)sc2ccccc21 | inconclusive: 20 µM [activator, partial curve] |
| COc1ccc(NC(=O)CC(c2ccco2)C(C)C)cc1 (stereo not given) | inconclusive: 39.8 µM [activator, single point] |

| SMILES | Potency |
| --- | --- |
| O=C(OCC(=O)c1ccc[nH]1)c1ccc(F)c(S(=O)(=O)N2CCOCC2)c1 | inconclusive: 14.1 µM [activator, single point] |
| O=C(C[n+]1cccc2ccccc21)c1ccc(NC(=O)c2ccccc2)cc1 | inconclusive: 3.55 µM [activator, partial curve] |
| Cc1cc(C)nc(SCc2nnc(SCc3ccccc3Cl)o2)n1 | inactive |
| COc1ccc(S(=O)(=O)N(Cc2cccs2)C2CCCC2)cc1 | inconclusive: 3.16 µM [activator, partial curve] |
| Cn1c2ccccc2c(=O)c2ccc(F)cc21 | inconclusive: 39.8 µM [activator, single point] |
| S=C1NC[C@H](CC2CCCCC2)N1CC1CCCCC1 | inconclusive: 39.8 µM [activator, single point] |
| Cc1cc2ccccn2c1C(=O)c1ccc([N+](=O)[O-])cc1[N+](=O)[O-] | inactive |
| CCOC(=O)C1(Cc2cccc(OC)c2)CCCN(C(=O)c2ccccc2C)C1 (stereo not given) | inconclusive: 39.8 µM [activator, single point] |
| Cc1c(C(=O)O)cccc1-c1ccc(/C=N/n2cnnc2)o1 | inconclusive: 5.01 µM [activator, full curve, poor fit] |
| Cc1cc(C)c2c(C(C)(C)C)nn(-c3ccccc3)c2n1 | inconclusive: 39.8 µM [activator, single point] |
| N#Cc1ccccc1OCc1cccc(S(=O)(=O)N2CCOCC2)c1 | inconclusive: 7.94 µM [activator, partial curve, poor fit] |
| O=C(NCC1CCCO1)C1CCN(S(=O)(=O)c2cccc3cccnc23)CC1 (stereo not given) | inconclusive: 0.631 µM [activator, full curve, poor fit] |
| Cc1ccc(Nc2nc(N)nc(CN3CCN(Cc4ccc5c(c4)OCO5)CC3)n2)c(C)c1 | inactive |
| O=C(N/N=C/C1CC2C=CC1C2)c1ccccc1O (stereo not given) | active: 31.6 µM |
| CCCCCCc1cc2cc(S(=O)(=O)c3ccc(Cl)cc3)c(=O)oc2cc1O | inconclusive: 25.1 µM [activator, single point] |
| COc1ccc(NC(=S)Nc2ccc3snnc3c2)cc1 | inactive |
| C=CCn1c2ccccc2c(=O)c2cc(C#Cc3cc(OC)cc(OC)c3)ccc21 | inconclusive: 39.8 µM [activator, partial curve] |
| Cc1cc(C)c(S(=O)(=O)/N=C2/C=C(Sc3ncn[nH]3)C(=O)c3ccccc32)cc1C | inconclusive: 7.08 µM [activator, single point] |
| O=S(=O)(c1cc(Cl)ccc1Cl)N1CCC2(CC1)OCCO2 | inconclusive: 8.91 µM [activator, single point] |
| CCc1nnc(N/N=C/c2cc(Br)c(O)cc2O)n1N | inconclusive: 39.8 µM [activator, single point] |
| O=[N+]([O-])c1cccc(-c2nnc3cccc(Cl)n23)c1 | inconclusive: 8.91 µM [activator, partial curve] |
| CC1CCCC(C)N1C(=O)COC(=O)Cc1ccc(Cl)cc1 (stereo not given) | inconclusive: 3.55 µM [activator, partial curve] |

Entries shown so far containing four or more nitrogen atoms:

| SMILES | Potency |
| --- | --- |
| Cc1ccc(NC(=O)c2sc3ncn(CC(=O)N4CCOCC4)c(=O)c3c2C)c(Br)c1 | inactive |
| Cn1nnnc1Sc1ncnc2scc(-c3cc4ccccc4o3)c12 | inconclusive: 39.8 µM [activator, single point] |
| CCN(CC)S(=O)(=O)c1cccc(-c2nnc(SCc3nc4ccccc4s3)o2)c1 | inactive |
| CC(Nc1cc(N2CCN(C(=O)C(C)(C)C)CC2)ccc1[N+](=O)[O-])c1ccccc1 (stereo not given) | inactive |
| Cc1cc(C)nc(SCc2nnc(SCc3ccccc3Cl)o2)n1 | inactive |
| Cc1c(C(=O)O)cccc1-c1ccc(/C=N/n2cnnc2)o1 | inconclusive: 5.01 µM [activator, full curve, poor fit] |
| Cc1ccc(Nc2nc(N)nc(CN3CCN(Cc4ccc5c(c4)OCO5)CC3)n2)c(C)c1 | inactive |
| COc1ccc(NC(=S)Nc2ccc3snnc3c2)cc1 | inactive |
| Cc1cc(C)c(S(=O)(=O)/N=C2/C=C(Sc3ncn[nH]3)C(=O)c3ccccc32)cc1C | inconclusive: 7.08 µM [activator, single point] |
| CCc1nnc(N/N=C/c2cc(Br)c(O)cc2O)n1N | inconclusive: 39.8 µM [activator, single point] |
| O=[N+]([O-])c1cccc(-c2nnc3cccc(Cl)n23)c1 | inconclusive: 8.91 µM [activator, partial curve] |
